## Primary screen of a compound library

Sequences of proteins named here, by UniProt entry; tags and fusion partners are left off.
UniProt E9BF75, entry or part of it: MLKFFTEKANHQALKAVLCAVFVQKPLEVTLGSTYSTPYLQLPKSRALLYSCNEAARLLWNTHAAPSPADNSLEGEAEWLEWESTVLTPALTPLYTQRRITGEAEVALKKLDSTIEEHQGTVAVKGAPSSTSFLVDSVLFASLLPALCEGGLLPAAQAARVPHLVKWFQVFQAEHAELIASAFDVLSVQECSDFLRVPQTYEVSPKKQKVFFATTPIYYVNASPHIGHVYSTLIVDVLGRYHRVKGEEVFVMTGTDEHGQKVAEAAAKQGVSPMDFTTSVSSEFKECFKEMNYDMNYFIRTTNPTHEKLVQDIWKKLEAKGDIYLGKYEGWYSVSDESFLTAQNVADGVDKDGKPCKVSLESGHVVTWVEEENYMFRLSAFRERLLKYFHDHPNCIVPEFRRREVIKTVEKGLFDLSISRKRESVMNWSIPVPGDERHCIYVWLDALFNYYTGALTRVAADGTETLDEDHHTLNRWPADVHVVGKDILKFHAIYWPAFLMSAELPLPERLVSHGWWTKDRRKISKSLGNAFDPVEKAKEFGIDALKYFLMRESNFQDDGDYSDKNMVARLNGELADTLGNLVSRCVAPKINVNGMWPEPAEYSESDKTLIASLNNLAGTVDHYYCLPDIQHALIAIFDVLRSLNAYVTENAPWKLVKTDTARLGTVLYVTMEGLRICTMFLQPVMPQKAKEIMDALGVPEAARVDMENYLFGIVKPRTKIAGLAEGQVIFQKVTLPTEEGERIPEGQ

The values are deposited in ChEMBL (CHEMBL3988442, “University of Dundee, Small-Polar-MMV Screening Library” (2021)).

All values are in %.
The controls that fix the scale are not given in the record; negative values are as filed.
This is an unselected part of the compounds tested.

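Primary screen of methionyl-tRNA synthetase; the read-out is not stated. Target: Methionyl-tRNA synthetase (putative), Leishmania donovani (UniProt E9BF75). The test concentration is not given. Values are per cent inhibition. About 68,000 compounds were tested under these conditions; 0.035% (about 24) showed 50% or more at least once.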

COCCC1CN(Cc2cn(CCC(N)=O)c3ccccc23)CCO1 (stereo not given) read 10.8%.
COc1ccc(CC(=O)N2CCC(c3nncn3C)CC2)cc1F read 7.023%.
CNC(=O)[C@@H](c1ccccc1F)N1CCC[C@H]1C(=O)NC1CC1 read 12.7%.
Cn1cccc1C(=O)N1CCN(Cc2cccnc2)c2ncccc2C1 read 13.97%.
O=C(c1ccccc1F)N1CCN(CCCn2cncn2)CC1 read 7.453%.
Cc1nc(O)c2nnn(C[C@H]3CCCN3C(=O)CCC3CCCC3)c2n1 read 1.712%.
CNC(=O)c1ccc(CNCc2ccc(SC)c(OC)c2)cc1 read 5.944%.
CCOCCN1CCN(Cc2nnc(C3CC3)o2)CC1CC (stereo not given) read 3.448%.
Cc1ccc2c(c1)C(NC(=O)N(C)C)CC21CCN(C)CC1 (stereo not given) read 4.658%.
CN1C(=O)CC(C(=O)O)C12CCN(Cc1ccc(Cl)cc1F)CC2 (stereo not given) read 12.68%.
Cc1cn([C@@H]2CC3(CCNCC3)OC[C@@]2(C)O)c(=O)[nH]c1=O read 23.58%.
Cn1nc(COc2cncnc2)c2c1CCN(Cc1ccco1)C2 read -3.65%.
Cc1ccc(NC(=O)C2CSCN2C(=O)c2cnn(C)c2)c(C)c1 (stereo not given) read 13.5%.
CC(=O)N1C[C@H]2C3(CCN(S(C)(=O)=O)CC3)CC[C@@]2(C(=O)N(C)C)C1 read 8.711%.
Nc1ncc2c(n1)CN(C1CCCC1)C2=O read 14.17%.
CC1CN(Cc2noc(C3CC3)n2)CCN1Cc1noc(C2CC2)n1 (stereo not given) read 26.2%.
CCOCCN1CCN(Cc2cccc(C(=O)N(C)C)c2)CC1CC (stereo not given) read 17.63%.
CC(O)CNc1c(NCc2ccco2)c(=O)c1=O (stereo not given) read 22.49%.
Cc1nc(CNC(=O)NCc2cccnc2N(C)C)cs1 read 14.2%.
COc1ccc(C2C3=C(CCCC3=O)Nc3nc(SC)nc(N)c32)cc1 (stereo not given) read 9.722%.
COC(=O)CC(NC(=O)c1cccc(N2CCCC2=O)c1)c1cccs1 (stereo not given) read 5.16%.
O=C1CN(c2ccc(CNC(=O)Nc3nnc(C4CC4)s3)cc2)CCN1 read 9.922%.
Cc1cc(CN2CCN(CC(O)C(C)(C)C)CC2)no1 (stereo not given) read 8.92%.
CCN(CC)CCn1ccnc1-c1cccc(O)c1 read 14.65%.
CCS(=O)(=O)NC(CCSC)C(=O)Nc1ccccc1C (stereo not given) read 18.56%.
Clc1cccc(N[C@H]2CCCN[C@H]2Cc2ccccc2)c1 read 16.8%.
O=C(C[C@H]1[C@H]2CN(Cc3ccncc3)C[C@@H]12)N1CCCC1 read 2.222%.
O=C(O)C1c2nc[nH]c2CCN1Cc1cc(-c2ccccc2)no1 (stereo not given) read 14.12%.
COc1ccccc1CN1CCCC2(Cc3ccccc3CNC2=O)C1 (stereo not given) read 7.429%.
COCCNC(=O)c1ccccc1-n1cc(CN)cn1 read 9.709%.
COc1ccccc1C(O)CNC(=O)Nc1ccccn1 (stereo not given) read 21.13%.
Cc1ccc(N2CCCC(NCc3ccc(Cl)o3)C2)nn1 (stereo not given) read 16.39%.
CS(=O)(=O)c1ccc(NC(=O)NC2(c3ccccc3)CCC2)cc1 read 10.78%.
CCn1ccnc1CNc1nccc(-c2cn(C)nc2C)n1 read 10.42%.
O=C(C1CCCO1)N1CCc2onc(-c3ccc(Cl)cc3)c2C1 (stereo not given) read 9.964%.
CC(C)c1nc(CN2CCCN(c3nccs3)CC2)no1 read 12.5%.
Cc1noc(C)c1CN1CC2(CCCCN2c2cncnc2)CC1=O (stereo not given) read 10.73%.
O=C(N[C@@H]1CN(Cc2ccoc2)[C@@H]2CCCO[C@@H]21)C1CC1 read 9.295%.
Cc1cnn(CCNCc2csc(-c3ccc(C)o3)n2)c1 read 21.79%.
CCCSCC(=O)N1CCCC(CO)(CCC)C1 (stereo not given) read 19.81%.
Nc1nnc(CCCNc2ncnc3c2CCN(C(=O)C2CC2)C3)s1 read 23%.

Repeated from the top, 5 entries:

Compound,inhibition
COCCC1CN(Cc2cn(CCC(N)=O)c3ccccc23)CCO1 (stereo not given),10.8%
COc1ccc(CC(=O)N2CCC(c3nncn3C)CC2)cc1F,7.023%
CNC(=O)[C@@H](c1ccccc1F)N1CCC[C@H]1C(=O)NC1CC1,12.7%
Cn1cccc1C(=O)N1CCN(Cc2cccnc2)c2ncccc2C1,13.97%
O=C(c1ccccc1F)N1CCN(CCCn2cncn2)CC1,7.453%